Experimental data published in article PMC11809420.
These are yes or no findings as the source states them, for the method shown. In cells and extracts the contact can be indirect. Some binding calls cover weakened binding; strength is not graded here. For some assays here: Where a sequence is shown, tags or fusion partners need not be part of it.

Chains of the proteins cited; added tags and fusions are not shown.
UniProt P35240: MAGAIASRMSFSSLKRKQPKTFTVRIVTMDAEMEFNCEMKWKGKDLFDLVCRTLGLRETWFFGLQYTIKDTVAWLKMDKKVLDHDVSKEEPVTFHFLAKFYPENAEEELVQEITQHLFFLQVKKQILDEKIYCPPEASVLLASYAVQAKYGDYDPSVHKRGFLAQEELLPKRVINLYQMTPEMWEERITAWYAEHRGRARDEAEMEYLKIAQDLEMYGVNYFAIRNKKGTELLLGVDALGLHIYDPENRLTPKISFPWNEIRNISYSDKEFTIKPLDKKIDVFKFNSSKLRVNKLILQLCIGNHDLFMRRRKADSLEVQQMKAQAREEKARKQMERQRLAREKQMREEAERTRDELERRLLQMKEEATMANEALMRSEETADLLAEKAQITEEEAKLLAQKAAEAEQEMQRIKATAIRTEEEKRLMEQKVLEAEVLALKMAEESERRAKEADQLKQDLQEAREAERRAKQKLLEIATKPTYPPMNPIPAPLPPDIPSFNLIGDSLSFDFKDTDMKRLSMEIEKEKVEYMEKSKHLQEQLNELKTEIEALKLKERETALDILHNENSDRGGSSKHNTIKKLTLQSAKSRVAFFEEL
UniProt Q9GZV5: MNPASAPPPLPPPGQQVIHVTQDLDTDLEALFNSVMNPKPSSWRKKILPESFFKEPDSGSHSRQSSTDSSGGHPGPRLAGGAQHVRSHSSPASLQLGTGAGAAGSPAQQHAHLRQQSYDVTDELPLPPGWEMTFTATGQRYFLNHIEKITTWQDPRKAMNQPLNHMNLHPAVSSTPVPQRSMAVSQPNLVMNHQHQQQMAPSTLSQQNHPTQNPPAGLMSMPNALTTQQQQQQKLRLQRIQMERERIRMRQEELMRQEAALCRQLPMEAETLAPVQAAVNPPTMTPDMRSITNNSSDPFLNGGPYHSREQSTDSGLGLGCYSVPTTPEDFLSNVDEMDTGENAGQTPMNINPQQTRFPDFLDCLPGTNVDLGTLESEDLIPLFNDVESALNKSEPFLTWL
UniProt P46937: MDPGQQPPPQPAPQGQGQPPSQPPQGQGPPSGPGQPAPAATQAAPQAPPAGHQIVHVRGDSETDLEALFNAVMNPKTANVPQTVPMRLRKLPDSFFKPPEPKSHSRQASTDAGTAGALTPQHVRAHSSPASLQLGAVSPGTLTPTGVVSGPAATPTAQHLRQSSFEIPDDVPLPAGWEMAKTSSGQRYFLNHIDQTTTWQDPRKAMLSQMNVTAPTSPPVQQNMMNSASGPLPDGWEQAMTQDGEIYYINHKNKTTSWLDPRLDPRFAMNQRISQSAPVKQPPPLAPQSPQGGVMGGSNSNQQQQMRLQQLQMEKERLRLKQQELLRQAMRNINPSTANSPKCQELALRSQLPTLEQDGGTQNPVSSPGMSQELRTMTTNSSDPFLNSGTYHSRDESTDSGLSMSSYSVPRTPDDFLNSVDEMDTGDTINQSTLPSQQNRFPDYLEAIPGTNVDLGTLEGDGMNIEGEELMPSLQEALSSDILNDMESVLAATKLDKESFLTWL

B1: ZDHHC15, endogenous (enzyme, UniProt Q96MV8 1-337)
chain: MRRGWKMALSGGLRCCRRVLSWVPVLVIVLVVLWSYYAYVFELCLVTVLSPAEKVIYLILYHAIFVFFTWTYWKSIFTLPQQPNQKFHLSYTDKERYENEERPEVQKQMLVDMAKKLPVYTRTGSGAVRFCDRCHLIKPDRCHHCSVCAMCVLKMDHHCPWVNNCIGFSNYKFFLQFLAYSVLYCLYIATTVFSYFIKYWRGELPSVRSKFHVLFLLFVACMFFVSLVILFGYHCWLVSRNKTTLEAFCTPVFTSGPEKNGFNLGFIKNIQQVFGDKKKFWLIPIGSSPGDGHSFPMRSMNESQNPLLANEETWEDNEDDNQDYPEGSSSLAVETET

Tests used:
[1] = target: T1, ZDHHC15 as used in the GST pull-down assays (human) (UniProt Q96MV8); assay: pull-down; GST pull-down; constructs and conditions not told in the text shown
T1 sequence: B1 chain

[2] = target: T2, V5-tagged ZDHHC15 (ZDHHC15-WT), expressed in HEK293T cells (human) (UniProt Q96MV8); assay: co-IP; V5-tagged ZDHHC15 with HA-, Flag- or Myc-tagged Hippo components in transfected HEK293T cells
T2 sequence: B1 chain

[3] = target: Kidney and brain protein (KIBRA), endogenous (human (endogenous in HCC1954, TOV-112D, HEK-293T)) (UniProt Q8IX03); assay: co-IP; endogenous proteins; HCC1954 and TOV-112D cells treated with MG132 (15 µM, 4 h); IP with anti-KIBRA or IgG, immunoblotting

Molecule	binding [2]	also measured
C2 domain (a.a. 658-785) of KIBRA as used in the GST pull-down assay (from UniProt Q8IX03 658-785) (domain or fragment)	–	binding [1]: binds
NF2/Merlin, tagged, expressed in HEK293T cells (from UniProt P35240 1-595)	no binding	–
TAZ, tagged, expressed in HEK293T cells (from UniProt Q9GZV5 1-400)	no binding	–
YAP, tagged, expressed in HEK293T cells (from UniProt P46937 1-504)	no binding	–
B1	–	binding [3]: binds
